Data as given in PubChem BioAssay AID1224826 (NIAID, 2016)

- Aim: 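Genes that change LPS-induced Tnf promoter activity in mouse macrophages when knocked down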 (primary screen)
- Cell system: RAW264.7 G9 macrophages from mouse bearing reporters for p65 (GFP) and the Tnf promoter (mCherry)
- Reagent: siRNA pool against mouse genes, 100 nM
- Time to read-out: 16 h of LPS stimulation, after 2 days of siRNA transfection
- Conditions: bacterial lipopolysaccharide (Salmonella minnesota R595), 10 ng/ml
- Detection: 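Nuclear mCherry signal of the Tnf promoter reporter measured by imaging after background removal, scaled to each plate median and turned into robust z-scores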
- Scale: Tnf reporter robust z-score: higher = stronger Tnf promoter reporter signal after LPS
- Hit rule: 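a well counts as active at a score of -1.3 or below (Tlr4 knock-down control median) or above 3 (raised signal); controls and wells holding fewer than 50 cells are excluded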
- Meaning of the calls: active = Tnf reporter clearly lowered or raised; inactive = no clear change in Tnf reporter
Shown is a random part of about 17,000 reagents. About 1,110 of all reagents (6.6%) were called active. 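Active means lowered or raised reporter signal; replicate intensities are raw and not normalised per plate.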 A reagent listed more than once was tested more than once; the source does not tell the runs apart. Not all columns of the deposit are shown.

gene | Tnf reporter robust z-score | fewer than 50 cells in well | Outcome
Nr1h4 (nuclear receptor subfamily 1, group H, member 4) | 0.57 | enough cells in well | inactive
Otop1 (otopetrin 1) | -0.45 | enough cells in well | inactive
Hnrnpdl (heterogeneous nuclear ribonucleoprotein D-like) | 1.69 | enough cells in well | inactive
Pik3cb | 0.54 | enough cells in well | inactive
Pik3cb | 0.45 | enough cells in well | inactive
Fsip1 (fibrous sheath-interacting protein 1) | -0.08 | enough cells in well | inactive
Rabggta (Rab geranylgeranyl transferase, a subunit) | -0.79 | enough cells in well | inactive
Trpc4 | 0.62 | enough cells in well | inactive
Hif1a (hypoxia inducible factor 1, alpha subunit) | -0.93 | enough cells in well | inactive
Efcab14 (EF-hand calcium binding domain 14) | 1.46 | enough cells in well | inactive
Zfp418 (zinc finger protein 418) | -1.58 | enough cells in well | active
Pigo (phosphatidylinositol glycan anchor biosynthesis, class O) | 0.19 | enough cells in well | inactive
Eaf1 (ELL associated factor 1) | -0.92 | enough cells in well | inactive
Chchd5 (coiled-coil-helix-coiled-coil-helix domain containing 5) | -0.1 | enough cells in well | inactive
Rpl21 (ribosomal protein L21) | -0.19 | enough cells in well | inactive
Krtap9-1 (keratin associated protein 9-1) | -1.79 | enough cells in well | active
Or5ac17 (olfactory receptor family 5 subfamily AC member 17) | 2.16 | enough cells in well | inactive
Atxn1 (ataxin 1) | -0.14 | enough cells in well | inactive
Xrn1 (5'-3' exoribonuclease 1) | – | fewer than 50 cells per well; well left out of calls | inactive
Vmn1r82 (vomeronasal 1 receptor 82) | -1.32 | enough cells in well | active
Polr1h (RNA polymerase I subunit H) | 0.42 | enough cells in well | inactive
Mettl25b (methyltransferase like 25B) | -1 | enough cells in well | inactive
Sdf4 (stromal cell derived factor 4) | – | fewer than 50 cells per well; well left out of calls | inactive
Nav1 (neuron navigator 1) | 0.95 | enough cells in well | inactive
Arc (activity regulated cytoskeletal-associated protein) | 0.46 | enough cells in well | inactive
Ssx2ip (SSX family member 2 interacting protein) | – | fewer than 50 cells per well; well left out of calls | inactive
Tdrd7 (tudor domain containing 7) | -0.2 | enough cells in well | inactive
Slc22a7 | 0.72 | enough cells in well | inactive
Lypd3 (Ly6/Plaur domain containing 3) | – | fewer than 50 cells per well; well left out of calls | inactive
C1s2 (complement component 1, s subcomponent 2) | 0.2 | enough cells in well | inactive
Trim12a (tripartite motif-containing 12A) | -0.04 | enough cells in well | inactive
Akr1b10 (aldo-keto reductase family 1, member B10) | 2.72 | enough cells in well | inactive
Ddx6 (DEAD-box helicase 6) | 0.05 | enough cells in well | inactive
Mid1 (midline 1) | 0.58 | enough cells in well | inactive
Or10a2 (olfactory receptor family 10 subfamily A member 2) | 0.92 | enough cells in well | inactive
Or5w16 (olfactory receptor family 5 subfamily W member 16) | -1.05 | enough cells in well | inactive

Entries listed so far called active (3):
gene | Tnf reporter robust z-score | fewer than 50 cells in well | Outcome
Zfp418 (zinc finger protein 418) | -1.58 | enough cells in well | active
Krtap9-1 (keratin associated protein 9-1) | -1.79 | enough cells in well | active
Vmn1r82 (vomeronasal 1 receptor 82) | -1.32 | enough cells in well | active

The list goes on.
gene | Tnf reporter robust z-score | fewer than 50 cells in well | Outcome
Dusp2 (dual specificity phosphatase 2) | 1.99 | enough cells in well | inactive
Smap1 (small ArfGAP 1) | – | fewer than 50 cells per well; well left out of calls | inactive
Ppm1f (protein phosphatase 1F (PP2C domain containing)) | -0.83 | enough cells in well | inactive
Rac2 (Rac family small GTPase 2) | 0.14 | enough cells in well | inactive
Pcdhga2 (protocadherin gamma subfamily A, 2) | 0.6 | enough cells in well | inactive
Gpd1l (glycerol-3-phosphate dehydrogenase 1-like) | -1.74 | enough cells in well | active
Phtf1 (putative homeodomain transcription factor 1) | -1.04 | enough cells in well | inactive
Map1a (microtubule-associated protein 1 A) | -0.28 | enough cells in well | inactive
Map6d1 (MAP6 domain containing 1) | -0.12 | enough cells in well | inactive
Gfm1 (G elongation factor, mitochondrial 1) | 0.29 | enough cells in well | inactive
Dlgap2 (DLG associated protein 2) | 0.03 | enough cells in well | inactive
Tpsg1 (tryptase gamma 1) | -1.28 | enough cells in well | inactive
Usf2 (upstream transcription factor 2) | -0.41 | enough cells in well | inactive
Ntng2 (netrin G2) | 1.91 | enough cells in well | inactive
Plaat1 (phospholipase A and acyltransferase 1) | 0.29 | enough cells in well | inactive
Ttpal (tocopherol (alpha) transfer protein-like) | 1.16 | enough cells in well | inactive
Marcksl1 (MARCKS-like 1) | -0.84 | enough cells in well | inactive
Cetn4 (centrin 4) | -0.82 | enough cells in well | inactive
Adck5 (aarF domain containing kinase 5) | 0.76 | enough cells in well | inactive
Acot4 (acyl-CoA thioesterase 4) | -0.81 | enough cells in well | inactive
Rad23a (RAD23 homolog A, nucleotide excision repair protein) | -0.86 | enough cells in well | inactive
Abcf3 (ATP-binding cassette, sub-family F member 3) | 1.29 | enough cells in well | inactive
